Reference: PubChem BioAssay AID1224830 (NIAID, 2016)

- Assay: 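Host factors that control LPS-induced TNF expression in human macrophages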 (primary screen)
- Cells: human THP-1 monocytic leukaemia cells, TNF dual-luciferase reporter clone, PMA-differentiated to macrophage-like cells
- Reagents: siRNA pool against human genes, 50 nM
- Duration: LPS for 4 h, given about 3 days after siRNA transfection
- Conditions: bacterial LPS (TLR4 ligand), 10 ng/ml
- Measured: 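Ratio of firefly to renilla light, scaled to the plate median and expressed as a robust z-score per replicate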
- Scale: TNF reporter robust z-score: higher = stronger TNF reporter response to LPS
- Rule for the call: 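a well is active when its z-score exceeds 2.8 or falls below -1.5; control wells carry no call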
The whole screen tested about 18,000 reagents; shown is an unselected part. About 2,900 of them (16%) count as active. 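Calls are made per well; low scores hint the gene aids the LPS response, high scores that it dampens it.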 Repeated entries: four replicate wells of each siRNA pool.

For TEKTL1 [SID315461712] the deposit lists TNF reporter robust z-score 0.06; inactive.
TEKTL1 [SID315461712] showed TNF reporter robust z-score -0.2; inactive.
TEKTL1 [SID315461712] showed TNF reporter robust z-score 0.52; inactive.
Knock-down of TEKTL1 [SID315461712] came out at: TNF reporter robust z-score 1.54; inactive.
ECD [SID315454754] gave TNF reporter robust z-score -1.38; inactive.
After knock-down of ECD [SID315454754] the results were TNF reporter robust z-score -0.59; inactive.
Against ECD [SID315454754] the deposit lists TNF reporter robust z-score -0.55; inactive.
For ECD [SID315454754], the values are TNF reporter robust z-score -0.65; inactive.
ZNF124 [SID315452238] showed TNF reporter robust z-score 0.1; inactive.
Depletion of ZNF124 [SID315452238] came out at: TNF reporter robust z-score 2.42; inactive.
For ZNF124 [SID315452238], the values are TNF reporter robust z-score 0.08; inactive.
Silencing of ZNF124 [SID315452238] gave: TNF reporter robust z-score -0.81; inactive.
Silencing of ZACN [SID315464281] resulted in: TNF reporter robust z-score -0.33; inactive.
With knock-down of ZACN [SID315464281], the screen gave TNF reporter robust z-score -0.14; inactive.
ZACN [SID315464281] gave TNF reporter robust z-score -0.08; inactive.
Knock-down of ZACN [SID315464281] gave: TNF reporter robust z-score 0.99; inactive.
For RNASE10 [SID315464007], the values are TNF reporter robust z-score 3.47; active.
After knock-down of RNASE10 [SID315464007], the record shows TNF reporter robust z-score 2.82; active.
With knock-down of RNASE10 [SID315464007] the results were TNF reporter robust z-score 1.68; inactive.
Depletion of RNASE10 [SID315464007] came out at: TNF reporter robust z-score 5.86; active.
